This assay has as its system Candida albicans, strain 7238. As to the kind of experiment: MIC of yeast strain. Type of assay: cell-based. As for the experimental part: Yeast respiratory infections are a major problem in immunocompromised patients. To evaluate the fungicide activity of the liposomal-amphotericin B formulation produced according to the present invention (DPPC/DMPG), in vitro tests were performed against Candida albicans, strain 7238, MIC=1 μg/ml. To culture tubes containing 22.5 ml of C. albicans cells (final cell concentration of 103/ml), 7.5 ml of RPMI medium 1640 containing liposome-amphotericin B (final concentration of 0.125 μg/ml), free amphotericin B (final concentration of 0.125 μg/ml), or control PBS were added at time zero. Experiments were done in triplicate. At times 0, 3, 6, 12, 24, and 36 hours following the addition of antibiotic or control, 1.5 ml samples were collected and serial 10 fold dilutions were made and spread in triplicate on proteose peptone agar plates. CFU were counted after 24 hour and 48 hour incubations ar 37° C. under CO2. Counts were expressed in log CFU per ml of culture media.

Take `C[C@@H]1[C@H](O)[C@@H](C)/C=C/C=C/C=C/C=C/C=C/C=C/C=C/[C@H](O[C@@H]2O[C@H](C)[C@@H](O)[C@H](N)[C@@H]2O)C[C@@H]2O[C@](O)(C[C@@H](O)C[C@@H](O)[C@H](O)CC[C@@H](O)C[C@@H](O)CC(=O)O[C@H]1C)C[C@H](O)[C@H]2C(=O)O` [amphotericin B]: the MIC stood at 1 µg/mL.

A word on the MIC: it is the least concentration at which growth counts as inhibited.

The values are drawn from patent publication US6613352B2, “Low-rigidity liposomal formulation” (Universite de Montreal, priority 1999, dated 2003).
